# Test results taken from PubChem BioAssay AID493014 (National Center for Advancing Translational Sciences (NCATS), 2011).
# This is one part of the list. The main result of the screen is listed elsewhere. These columns were measured beside it and carry no call. Compounds called inactive in the main read-out are mostly missing here. The note in brackets gives the kind of curve behind each potency; many fits are weak.
# Assay: qHTS Assay to Find Inhibitors of Chronic Active B-Cell Receptor Signaling
# Conditions: ABC-DLBCL IkBa-CBG/CBR reporter, luminescence ratio (green luciferase fused to IkBa over red control in TMD8 lymphoma cells), 4 h
# Procedure, shortened: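 Concentration-response series (up to 46 uM) were applied to TMD8 dual-reporter cells for 4 h at 37C with doxycycline. Green/red ratio, after filter-overlap correction, defined %Activity; red signal alone was normalised to basal cells and zero luminescence.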
# [1] = measured here: CBR red luminescence, cell number
# [2] = measured here: IkBa-CBG green luminescence
smiles,measurement,setting,value
N#Cc1ccc(OCc2noc(-c3ccsc3)n2)cc1,AC50,[1],"10 µM [rising, partial curve, poor fit]"
COc1ccc(-n2nc(C(=O)NCC(=O)N3CCC(C)CC3)c3ccccc3c2=O)cc1Cl,AC50,[1],"28.2 µM [falling, single point]"
Cc1nc(Nc2ccccc2F)c2oc3ccccc3c2n1,AC50,[1],"2.82 µM [falling, full curve]"
COc1ccccc1C1C([N+](=O)[O-])=CC([N+](=O)[O-])=CN1C (stereo unspecified),AC50,[1],"23.1 µM [falling, single point]"
S=c1[nH]nc(-c2ccco2)n1-c1ccccc1Cl,AC50,[1],"0.562 µM [rising, partial curve, poor fit]"
CC(C)CCN(C(=O)Nc1ccccc1)C(C)c1cccs1 (stereo unspecified),AC50,[1],"6.51 µM [falling, single point]"
Cc1cccc(OCCCc2c(C)n[nH]c2C)c1,AC50,[1],"35.5 µM [falling, single point]"
[O-][n+]1ccccc1SC/C=C/c1ccccc1,AC50,[1],"17.8 µM [rising, partial curve, poor fit]"
NC(=S)N/N=C/c1cn(-c2ccccc2)nc1-c1cccnc1,AC50,[1],"6.31 µM [falling, full curve, poor fit]"
CCOC(=O)C1CCN(C(=O)/C=C/c2cccs2)CC1,AC50,[1],"31.6 µM [falling, single point]"
O=C(Nn1c(C2CCCCC2)nc2ccccc2c1=O)c1ccc([N+](=O)[O-])cc1,AC50,[1],"3.26 µM [rising, partial curve, poor fit]"
CCn1c2ccccc2c2cc(/C=N/NC(=O)c3ccccc3C)ccc21,AC50,[1],"4.61 µM [falling, partial curve]"
O=C(CCCN1C(=O)S/C(=C\c2ccccc2)C1=O)NNC(=O)c1ccccc1O,AC50,[1],"0.708 µM [falling, full curve, poor fit]"
Cc1cccc(N=Nc2c(C)[nH]n(C(N)=S)c2=O)c1C,AC50,[1],"0.447 µM [rising, partial curve, poor fit]"
COc1cc(/C=N/Nc2ccc(C(=O)O)cc2)cc(OC)c1OC,AC50,[1],"0.2 µM [falling, full curve]"
Cc1cccc(Cc2cnc(N3C(=N)SC(C)C3=O)s2)c1 (stereo unspecified),AC50,[1],"28.2 µM [rising, single point]"
same,AC50,[2],"22.4 µM [falling, single point]"
O=C(N/N=C/c1ccc2cccnc2c1)c1nc2ccccc2c(=O)[nH]1,AC50,[1],"1.12 µM [rising, partial curve, poor fit]"
C=CCOc1c(OC)cc(/C=N/Nc2cccc(C(=O)O)c2)c(Br)c1Br,AC50,[1],"0.92 µM [rising, full curve, poor fit]"
same,AC50,[2],"0.326 µM [falling, full curve, poor fit]"
Cc1csc(CNc2ncnc3ccc(-c4cccnc4)cc23)c1,AC50,[1],"4.61 µM [rising, partial curve, poor fit]"
CCCc1cc(=O)[nH]c(SCC(=O)N(C)CC(=O)Nc2ccc(C)cc2)n1,AC50,[1],"35.5 µM [rising, single point]"
COCCn1cc(C(=O)NCCCOC(C)C)c2c3ccccc3n(C)c2c1=O,AC50,[1],"11.2 µM [rising, partial curve]"
Cc1ccccc1C(=O)NC(=S)Nc1ccccc1C(F)(F)F,AC50,[1],"6.31 µM [falling, single point]"
OC1(c2ccccc2)Cc2cccc[n+]2C1c1ccccc1 (stereo unspecified),AC50,[1],"11.2 µM [rising, partial curve, poor fit]"
O=c1[nH]c(C2CCCN(S(=O)(=O)c3ccc(F)cc3)C2)nc2c1nnn2Cc1ccc(F)cc1 (stereo unspecified),AC50,[1],"6.31 µM [rising, partial curve, poor fit]"
COc1ccc(-c2cc3nc(C)cc(N)n3n2)cc1,AC50,[1],"7.08 µM [falling, full curve]"
Cc1nc(SCC(=O)Nc2ccc(F)cc2)c2oc3ccccc3c2n1,AC50,[1],"2.91 µM [falling, partial curve, poor fit]"
Nc1cc([N+](=O)[O-])cc2oc(-c3ccccc3)cc12,AC50,[1],"20 µM [rising, partial curve, poor fit]"
COc1cc(CNc2ncnc3c2[nH]c2ccc(C)cc23)cc(OC)c1,AC50,[1],"22.4 µM [falling, single point]"
O=C1C=C(N2CCOCC2)C2(CCCCC2)O1,AC50,[1],"3.98 µM [falling, full curve, poor fit]"
Nc1[nH][nH]c(=O)c1N=Nc1cccc(Cl)c1,AC50,[1],"35.5 µM [falling, single point]"
Cc1ccc(Cl)c(NC(=O)COC(=O)c2ccccc2C(=O)c2ccc(Cl)c([N+](=O)[O-])c2)c1Cl,AC50,[1],"8.2 µM [falling, partial curve]"
Cc1cc(Cl)n2c(nc3cc(F)c(F)cc32)c1C#N,AC50,[1],"35.5 µM [falling, single point]"
same,AC50,[2],"3.55 µM [falling, full curve, poor fit]"
Cc1ccc2c(C)c(C(=O)Nc3ccc(S(=O)(=O)Nc4onc(C)c4C)cc3)oc2c1,AC50,[1],"3.55 µM [falling, partial curve, poor fit]"
O=C(CNC(=O)c1cccc(F)c1)OCC(=O)N1CCN(C(=O)c2ccco2)CC1,AC50,[1],"12.6 µM [rising, partial curve, poor fit]"
NS(=O)(=O)c1ccc(NC(=O)COc2cccc3ccccc23)cc1,AC50,[1],"10 µM [falling, partial curve]"
CCN(CC)c1ccc(/C=C2/C(=O)c3ccc(C(=O)O)cc3C2=O)cc1,AC50,[1],"10.3 µM [falling, partial curve]"
COc1ccc(C2(CNC(=O)c3ccc(N)cc3)CCCC2)cc1,AC50,[1],"35.5 µM [rising, partial curve, poor fit]"
O=C(Nc1nccs1)C1CCCN(S(=O)(=O)c2cccc3cccnc23)C1 (stereo unspecified),AC50,[1],"0.731 µM [falling, full curve, poor fit]"
COc1ccc(Nc2nc3ccccc3c(=O)[nH]2)cc1,AC50,[1],"15.8 µM [rising, partial curve, poor fit]"
O=C(O)c1ccc(/C=N/Nc2cccc(C(F)(F)F)c2)cc1,AC50,[1],"1 µM [falling, partial curve]"
CN1CCN(NC(=O)Nc2ccc(Br)cc2Cl)CC1,AC50,[1],"1.41 µM [rising, partial curve, poor fit]"
O=C(CC(c1ccccc1)c1ccccc1)Nc1ccc(C(=O)O)cc1,AC50,[1],"3.98 µM [rising, single point]"
Cc1ccc(NC(=O)c2nc(S(=O)(=O)Cc3ccccc3C)ncc2Cl)cc1C,AC50,[1],"8.91 µM [falling, partial curve]"
CC(=O)c1ccccc1NC(=O)COC(=O)c1ccc2c(c1)nc(C)n2-c1ccccc1,AC50,[1],"0.82 µM [rising, full curve, poor fit]"
COc1ccccc1NC(=O)CSC1=Nc2ccccc2C2=NC(CC(=O)NCc3ccccc3)C(=O)N12 (stereo unspecified),AC50,[1],"14.1 µM [falling, partial curve]"
O=C(O)CC1S/C(=N\N=C2\C(=O)Nc3ccccc32)N(c2ccc(O)cc2)C1=O (stereo unspecified),AC50,[1],"2.51 µM [falling, full curve]"
Cc1cc(=O)n2[nH]c(SCc3ccc(Cl)cc3)nc2n1,AC50,[1],"3.55 µM [falling, partial curve]"
COc1ccc(C(=O)/C=C/Nc2c(C)n(C)n(-c3ccccc3)c2=O)cc1OC,AC50,[1],"0.82 µM [rising, full curve, poor fit]"
COc1ccc(-c2c(C)nn3c(N)c(C#N)cnc23)cc1OC,AC50,[1],"2.82 µM [rising, full curve]"
same,AC50,[2],"4.47 µM [falling, full curve]"
O=C(/C=C/c1ccccc1Br)c1ccc2c(c1)OCO2,AC50,[1],"22.4 µM [falling, single point]"
O=C(COC(=O)CC1CC2CCC1C2)Nc1c(F)cccc1F (stereo unspecified),AC50,[1],"3.16 µM [rising, full curve, poor fit]"
CN(C)S(=O)(=O)c1cccc(NC(=O)CN(CCO)CC(=O)Nc2cccc(S(=O)(=O)N(C)C)c2)c1,AC50,[1],"7.08 µM [rising, partial curve]"
CCc1ccc(C(=O)NC(CC(C)C)C(=O)O)cc1 (stereo unspecified),AC50,[1],"1.3 µM [falling, full curve, poor fit]"
O=C(C1CCCCC1)N1CCCC(c2nc3c(nnn3Cc3ccccc3)c(=O)[nH]2)C1 (stereo unspecified),AC50,[1],"15.8 µM [falling, single point]"
CCN(CC)c1ccc(/C=C2\C(=O)c3ccc(C(=O)O)cc3C2=O)cc1,AC50,[1],"18.4 µM [falling, single point]"
COc1ccc(C2C(C(N)=O)=C(C)Nc3nc(-c4cccc(Cl)c4)nn32)cc1OC (stereo unspecified),AC50,[2],"20.6 µM [falling, partial curve, poor fit]"
CC(=O)OCC(=O)[C@@]1(O)CC[C@H]2[C@@H]3CCC4=CC(=O)C=C[C@]4(C)[C@@]3(F)[C@@H](O)C[C@@]21C,AC50,[1],"2.06 µM [rising, full curve, poor fit]"
O=C(O)c1ccc(NS(=O)(=O)c2ccc3c(c2)C(=O)c2ccccc2C3=O)cc1,AC50,[1],"10 µM [falling, partial curve, poor fit]"
COc1ccc(OCC(=O)NC2CC(=O)N(c3ccc4c(c3)OCCO4)C2)cc1 (stereo unspecified),AC50,[1],"10 µM [falling, partial curve, poor fit]"
CCCc1ccc2oc(C(=O)NCCc3cnn(C)c3)c(C)c2c1,AC50,[1],"2.24 µM [rising, full curve, poor fit]"
COC(=O)c1cn(C(=O)c2ccc(OC)c(OC)c2)c2ccccc12,AC50,[1],"12.6 µM [rising, single point]"
Cc1cc(C(F)F)n2nc(C(=O)Nc3ccccc3F)nc2n1,AC50,[1],"5.8 µM [rising, full curve]"

# Reformatted bar-delimited: entries from further up
smiles | measurement | setting | value
COc1ccc(-n2nc(C(=O)NCC(=O)N3CCC(C)CC3)c3ccccc3c2=O)cc1Cl | AC50 | [1] | 28.2 µM [falling, single point]
S=c1[nH]nc(-c2ccco2)n1-c1ccccc1Cl | AC50 | [1] | 0.562 µM [rising, partial curve, poor fit]
NC(=S)N/N=C/c1cn(-c2ccccc2)nc1-c1cccnc1 | AC50 | [1] | 6.31 µM [falling, full curve, poor fit]
O=C(CCCN1C(=O)S/C(=C\c2ccccc2)C1=O)NNC(=O)c1ccccc1O | AC50 | [1] | 0.708 µM [falling, full curve, poor fit]
C=CCOc1c(OC)cc(/C=N/Nc2cccc(C(=O)O)c2)c(Br)c1Br | AC50 | [1] | 0.92 µM [rising, full curve, poor fit]
CCCc1cc(=O)[nH]c(SCC(=O)N(C)CC(=O)Nc2ccc(C)cc2)n1 | AC50 | [1] | 35.5 µM [rising, single point]
O=c1[nH]c(C2CCCN(S(=O)(=O)c3ccc(F)cc3)C2)nc2c1nnn2Cc1ccc(F)cc1 (stereo unspecified) | AC50 | [1] | 6.31 µM [rising, partial curve, poor fit]
Cc1nc(SCC(=O)Nc2ccc(F)cc2)c2oc3ccccc3c2n1 | AC50 | [1] | 2.91 µM [falling, partial curve, poor fit]
COc1cc(CNc2ncnc3c2[nH]c2ccc(C)cc23)cc(OC)c1 | AC50 | [1] | 22.4 µM [falling, single point]
O=C1C=C(N2CCOCC2)C2(CCCCC2)O1 | AC50 | [1] | 3.98 µM [falling, full curve, poor fit]
O=C(Nc1nccs1)C1CCCN(S(=O)(=O)c2cccc3cccnc23)C1 (stereo unspecified) | AC50 | [1] | 0.731 µM [falling, full curve, poor fit]
O=C(O)CC1S/C(=N\N=C2\C(=O)Nc3ccccc32)N(c2ccc(O)cc2)C1=O (stereo unspecified) | AC50 | [1] | 2.51 µM [falling, full curve]
COc1ccc(-c2c(C)nn3c(N)c(C#N)cnc23)cc1OC | AC50 | [2] | 4.47 µM [falling, full curve]
Cc1cc(C(F)F)n2nc(C(=O)Nc3ccccc3F)nc2n1 | AC50 | [1] | 5.8 µM [rising, full curve]
